# Earlier results in patent US20090270496A1, “ANTIFUNGAL COMPOUNDS” (priority 2007, published 2009).
# Key:
# [1] = human, in vivo; cited from earlier work
# [2] = chronic dosing at 100 to 600 mg/day; cited from earlier work
smiles,measurement,setting,value
"CCCCc1oc2ccccc2c1C(=O)c1cc(I)c(OCCN(CC)CC)c(I)c1 [Amiodarone, amiodarone]",plasma concentration above which adverse side effects are more common,[1],over 2.5 mg/l
same,mean plasma concentration increase for each 100 mg/day administered,[2],500 ng/mL
